# Values quoted from earlier work in patent US20060147520A1, “Treatment of pulmonary hypertension by inhaled iloprost with a microparticle formulation” (priority 2004, published 2006).
# At least one structure is not confirmed: it was looked up by name or label, or the drawing left a doubt.
# System: men with mild-to-severe ED
# Settings: 20 mg, 12-week period; cited from earlier work
smiles,measurement,value
"CN1CC(=O)N2[C@H](c3ccc4c(c3)OCO4)c3[nH]c4ccccc4c3C[C@@H]2C1=O [Cialis, tadalafil]",attempts at vaginal penetration successful (Sexual Encounter Profile diary),77%
same,attempts for sexual intercourse completed,64%
same,patients reporting improved erections (Global Assessment Question),79%
